Results are given in words; binding and its absence hold for the method and conditions named. Where a sequence is shown, tags or fusion partners need not be part of it.

The chains behind the UniProt entries cited, without tags or fusion partners. Residues count along the entry.
UniProt P20042, residues 53-136: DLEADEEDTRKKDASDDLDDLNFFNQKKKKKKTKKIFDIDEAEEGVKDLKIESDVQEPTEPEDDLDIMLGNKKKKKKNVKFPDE

The target of the test is T1, human eIF2β 53–136 (human, UniProt P20042 53-136).
T1 construct: human eIF2 beta subunit, residues 53-136, carrying two K-boxes; also called eIF2β_(53–135)
The test is described as follows: ITC; a solution of eIF2β 53–136 injected with human 5MP1 constructs; performed as described previously (16); both purified.

B1: polyhistidine-tagged human 5MP1 N-terminal domain (aa. 1–245) (domain or fragment, UniProt Q9Y6E2 1-245)
chain: MNKHQKPVLTGQRFKTRKRDEKEKFEPTVFRDTLVQGLNEAGDDLEAVAKFLDSTGSRLDYRRYADTLFDILVAGSMLAPGGTRIDDGDKTKMTNHCVFSANEDHETIRNYAQVFNKLIRRYKYLEKAFEDEMKKLLLFLKAFSETEQTKLAMLSGILLGNGTLPATILTSLFTDSLVKEGIAASFAVKLFKAWMAEKDANSVTSSLRKANLDKRLLELFPVNRQSVDHFAKYFTDAGLKELSDF
For the molecule B1, the binding result is listed as “no binding”.

The record behind these values is PMC4176352, “Essential role of eIF5-mimic protein in animal development is linked to control of ATF4 expression” (Nucleic Acids Research, 2014).
